Results are given in words; binding and its absence hold for the method and conditions named. In cells and extracts the contact can be indirect. Here binding means that the protein was enriched with, or labelled near, the bait; the list need not be complete.
Key:
[1] = molecular target: Vpu-V5-APEX2 (HIV-1 viral protein U fused to a V5-APEX2 tag) (HIV-1) (UniProt P05923); experiment: proximity labelling; APEX2 labelling in HeLa cells transfected with Vpu-APEX2 (control APEX2-NES); biotinyl tyramide 30 min, 1 mM H2O2 1 min; streptavidin beads, on-bead digestion, label-free quantitative mass spectrometry; hits Log2FC > 2, P < 0.05
[2] = molecular target: Vpu-V5-APEX2 (HIV-1 viral protein U fused to a V5-APEX2 tag) (HIV-1) (UniProt P05923); experiment: affinity purification with mass spectrometry; HeLa cells transfected with Vpu-APEX2 or APEX2-NES, 48 h; Pierce IP lysis buffer; anti-V5 magnetic beads 2 h at 4 C; washes 50 mM Tris-HCl pH 7.5, 150 mM NaCl, 0.05% NP-40; gel, trypsin, mass spectrometry; hits Log2FC > 2, score > 3

Chains of the proteins cited; added tags and fusions are not shown.
UniProt P05923: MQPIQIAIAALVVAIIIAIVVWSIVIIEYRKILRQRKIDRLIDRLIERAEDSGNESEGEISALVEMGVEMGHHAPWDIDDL

B1: FAR1, endogenous (protein, UniProt Q8WVX9 1-515)
chain: MVSIPEYYEGKNVLLTGATGFLGKVLLEKLLRSCPKVNSVYVLVRQKAGQTPQERVEEVLSGKLFDRLRDENPDFREKIIAINSELTQPKLALSEEDKEVIIDSTNIIFHCAATVRFNENLRDAVQLNVIATRQLILLAQQMKNLEVFMHVSTAYAYCNRKHIDEVVYPPPVDPKKLIDSLEWMDDGLVNDITPKLIGDRPNTYIYTKALAEYVVQQEGAKLNVAIVRPSIVGASWKEPFPGWIDNFNGPSGLFIAAGKGILRTIRASNNALADLVPVDVVVNMSLAAAWYSGVNRPRNIMVYNCTTGSTNPFHWGEVEYHVISTFKRNPLEQAFRRPNVNLTSNHLLYHYWIAVSHKAPAFLYDIYLRMTGRSPRMMKTITRLHKAMVFLEYFTSNSWVWNTENVNMLMNQLNPEDKKTFNIDVRQLHWAEYIENYCLGTKKYVLNEEMSGLPAARKHLNKLRNIRYGFNTILVILIWRIFIARSQMARNIWYFVVSLCYKFLSYFRASSTMRY
For B1, the binding [1] was “binds” and the binding [2] was “binds”.

Reference: PMC12363165
